Measured values as given in the supplement of paper PMC10849652.
Some of the results follow.

Sequences of proteins named here, by UniProt entry; tags and fusion partners are left off. A change or cut given only in a name is not applied to a line headed by its entry.
UniProt O76003: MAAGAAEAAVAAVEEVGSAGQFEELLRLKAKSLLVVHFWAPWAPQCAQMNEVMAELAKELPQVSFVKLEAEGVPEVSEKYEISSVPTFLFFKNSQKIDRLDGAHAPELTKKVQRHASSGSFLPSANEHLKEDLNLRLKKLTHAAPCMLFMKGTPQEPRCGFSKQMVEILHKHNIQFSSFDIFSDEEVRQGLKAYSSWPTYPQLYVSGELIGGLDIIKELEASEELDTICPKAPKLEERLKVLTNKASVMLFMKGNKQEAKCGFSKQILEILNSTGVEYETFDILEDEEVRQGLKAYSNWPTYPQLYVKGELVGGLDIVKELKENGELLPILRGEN
UniProt Q86UL3: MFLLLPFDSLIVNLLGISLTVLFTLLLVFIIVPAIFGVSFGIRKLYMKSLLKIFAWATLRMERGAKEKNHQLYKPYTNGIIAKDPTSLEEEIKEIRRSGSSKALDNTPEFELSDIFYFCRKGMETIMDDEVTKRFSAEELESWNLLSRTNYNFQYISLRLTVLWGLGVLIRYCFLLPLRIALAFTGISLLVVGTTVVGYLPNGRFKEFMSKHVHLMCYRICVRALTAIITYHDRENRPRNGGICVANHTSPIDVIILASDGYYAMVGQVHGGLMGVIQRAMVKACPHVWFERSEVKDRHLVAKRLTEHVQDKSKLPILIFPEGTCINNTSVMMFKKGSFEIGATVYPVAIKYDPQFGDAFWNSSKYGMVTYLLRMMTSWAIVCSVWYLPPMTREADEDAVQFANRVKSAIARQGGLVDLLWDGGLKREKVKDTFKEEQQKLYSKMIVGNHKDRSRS
UniProt P06280: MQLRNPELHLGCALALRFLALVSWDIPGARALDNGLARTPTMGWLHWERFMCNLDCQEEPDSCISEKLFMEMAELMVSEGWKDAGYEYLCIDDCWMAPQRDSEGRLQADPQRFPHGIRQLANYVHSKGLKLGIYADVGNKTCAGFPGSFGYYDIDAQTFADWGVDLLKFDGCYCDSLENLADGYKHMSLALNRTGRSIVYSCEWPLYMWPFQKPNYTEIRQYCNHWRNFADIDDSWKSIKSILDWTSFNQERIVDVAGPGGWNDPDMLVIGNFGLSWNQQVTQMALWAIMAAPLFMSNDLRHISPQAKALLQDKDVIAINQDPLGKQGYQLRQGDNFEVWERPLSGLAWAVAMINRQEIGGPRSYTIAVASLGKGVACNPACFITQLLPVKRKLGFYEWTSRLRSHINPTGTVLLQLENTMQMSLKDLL
UniProt Q5JWF2, whole entry, looked up: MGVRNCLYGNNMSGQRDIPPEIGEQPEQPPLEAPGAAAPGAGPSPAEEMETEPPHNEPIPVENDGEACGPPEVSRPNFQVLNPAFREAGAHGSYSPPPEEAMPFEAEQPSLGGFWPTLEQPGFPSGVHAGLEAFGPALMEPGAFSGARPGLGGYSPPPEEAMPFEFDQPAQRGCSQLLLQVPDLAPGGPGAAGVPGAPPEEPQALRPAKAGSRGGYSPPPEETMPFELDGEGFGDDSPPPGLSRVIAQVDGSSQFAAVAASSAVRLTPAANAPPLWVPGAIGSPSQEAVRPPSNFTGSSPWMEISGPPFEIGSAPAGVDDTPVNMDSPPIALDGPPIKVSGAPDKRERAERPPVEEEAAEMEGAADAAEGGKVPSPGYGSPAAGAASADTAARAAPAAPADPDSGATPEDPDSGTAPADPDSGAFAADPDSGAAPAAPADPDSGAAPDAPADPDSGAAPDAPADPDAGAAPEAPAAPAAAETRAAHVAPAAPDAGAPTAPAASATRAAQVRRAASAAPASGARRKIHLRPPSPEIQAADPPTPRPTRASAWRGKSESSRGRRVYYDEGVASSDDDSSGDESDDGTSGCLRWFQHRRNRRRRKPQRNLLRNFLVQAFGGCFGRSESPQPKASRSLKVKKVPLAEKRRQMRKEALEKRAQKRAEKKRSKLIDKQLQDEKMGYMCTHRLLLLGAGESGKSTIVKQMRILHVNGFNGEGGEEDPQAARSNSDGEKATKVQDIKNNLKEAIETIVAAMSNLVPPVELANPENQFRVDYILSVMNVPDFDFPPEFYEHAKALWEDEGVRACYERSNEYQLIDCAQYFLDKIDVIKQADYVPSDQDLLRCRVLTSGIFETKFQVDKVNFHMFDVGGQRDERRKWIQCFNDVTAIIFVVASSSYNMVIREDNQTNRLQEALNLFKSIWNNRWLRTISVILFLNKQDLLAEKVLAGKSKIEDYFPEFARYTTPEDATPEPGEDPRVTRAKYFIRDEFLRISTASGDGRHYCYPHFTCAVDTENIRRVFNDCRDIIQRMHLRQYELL
UniProt Q8IW92: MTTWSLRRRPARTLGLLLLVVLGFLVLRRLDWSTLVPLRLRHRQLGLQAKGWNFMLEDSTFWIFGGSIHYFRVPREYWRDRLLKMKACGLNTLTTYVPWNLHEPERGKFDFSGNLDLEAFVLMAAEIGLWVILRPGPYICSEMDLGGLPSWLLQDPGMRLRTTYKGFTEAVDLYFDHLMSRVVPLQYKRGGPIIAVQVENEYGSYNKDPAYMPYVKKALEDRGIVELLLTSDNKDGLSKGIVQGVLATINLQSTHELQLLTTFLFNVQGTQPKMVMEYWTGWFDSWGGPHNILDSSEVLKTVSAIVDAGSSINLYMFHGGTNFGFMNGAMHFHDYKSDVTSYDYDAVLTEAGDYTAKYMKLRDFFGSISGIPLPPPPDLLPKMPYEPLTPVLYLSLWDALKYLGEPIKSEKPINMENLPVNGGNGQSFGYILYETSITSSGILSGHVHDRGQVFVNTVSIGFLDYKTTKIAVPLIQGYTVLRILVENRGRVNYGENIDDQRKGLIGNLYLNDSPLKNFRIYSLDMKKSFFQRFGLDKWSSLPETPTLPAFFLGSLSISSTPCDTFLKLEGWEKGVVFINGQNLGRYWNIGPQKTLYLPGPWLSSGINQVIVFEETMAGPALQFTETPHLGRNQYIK
UniProt Q86SX6: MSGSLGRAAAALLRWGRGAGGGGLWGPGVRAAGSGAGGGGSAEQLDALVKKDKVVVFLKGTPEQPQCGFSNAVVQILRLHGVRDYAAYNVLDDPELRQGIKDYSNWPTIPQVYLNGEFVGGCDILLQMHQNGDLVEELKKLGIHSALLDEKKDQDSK
UniProt P04899, whole entry, looked up: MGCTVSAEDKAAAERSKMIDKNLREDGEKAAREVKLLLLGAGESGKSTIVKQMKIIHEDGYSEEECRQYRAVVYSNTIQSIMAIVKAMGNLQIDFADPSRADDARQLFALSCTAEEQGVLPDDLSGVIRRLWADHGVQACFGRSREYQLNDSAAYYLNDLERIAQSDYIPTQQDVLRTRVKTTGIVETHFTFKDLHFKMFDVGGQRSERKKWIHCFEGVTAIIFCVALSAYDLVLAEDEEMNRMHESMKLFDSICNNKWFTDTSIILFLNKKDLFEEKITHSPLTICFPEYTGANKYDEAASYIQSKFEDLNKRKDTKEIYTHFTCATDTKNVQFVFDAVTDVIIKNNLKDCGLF
UniProt Q8N954: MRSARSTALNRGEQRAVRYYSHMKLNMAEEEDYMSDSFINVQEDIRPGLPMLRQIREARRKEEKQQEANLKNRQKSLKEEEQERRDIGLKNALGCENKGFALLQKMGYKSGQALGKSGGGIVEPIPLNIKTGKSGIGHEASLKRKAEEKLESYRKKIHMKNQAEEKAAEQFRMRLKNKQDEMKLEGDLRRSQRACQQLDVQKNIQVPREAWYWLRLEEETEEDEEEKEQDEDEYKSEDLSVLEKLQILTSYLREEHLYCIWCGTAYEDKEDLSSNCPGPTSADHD
UniProt P21695: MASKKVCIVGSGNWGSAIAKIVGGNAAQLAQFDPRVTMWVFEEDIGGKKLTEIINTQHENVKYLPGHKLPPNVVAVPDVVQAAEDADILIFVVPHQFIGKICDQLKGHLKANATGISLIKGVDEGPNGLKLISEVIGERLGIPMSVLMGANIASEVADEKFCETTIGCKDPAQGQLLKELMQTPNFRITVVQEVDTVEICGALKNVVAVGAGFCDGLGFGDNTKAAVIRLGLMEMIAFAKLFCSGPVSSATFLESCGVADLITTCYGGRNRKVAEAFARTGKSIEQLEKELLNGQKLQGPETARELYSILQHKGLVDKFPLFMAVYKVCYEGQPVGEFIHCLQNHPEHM
UniProt P15104, whole entry, looked up: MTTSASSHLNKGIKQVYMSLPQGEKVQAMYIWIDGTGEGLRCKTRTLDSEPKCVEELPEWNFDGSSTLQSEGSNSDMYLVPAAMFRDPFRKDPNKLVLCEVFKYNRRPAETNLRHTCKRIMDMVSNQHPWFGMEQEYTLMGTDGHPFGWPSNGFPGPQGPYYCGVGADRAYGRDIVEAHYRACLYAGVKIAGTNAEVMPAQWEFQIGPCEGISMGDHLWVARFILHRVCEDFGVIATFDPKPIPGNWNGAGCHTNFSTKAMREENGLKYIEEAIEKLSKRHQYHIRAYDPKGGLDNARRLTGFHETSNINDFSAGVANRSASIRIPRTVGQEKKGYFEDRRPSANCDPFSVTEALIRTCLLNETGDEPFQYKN
UniProt Q9P2T1: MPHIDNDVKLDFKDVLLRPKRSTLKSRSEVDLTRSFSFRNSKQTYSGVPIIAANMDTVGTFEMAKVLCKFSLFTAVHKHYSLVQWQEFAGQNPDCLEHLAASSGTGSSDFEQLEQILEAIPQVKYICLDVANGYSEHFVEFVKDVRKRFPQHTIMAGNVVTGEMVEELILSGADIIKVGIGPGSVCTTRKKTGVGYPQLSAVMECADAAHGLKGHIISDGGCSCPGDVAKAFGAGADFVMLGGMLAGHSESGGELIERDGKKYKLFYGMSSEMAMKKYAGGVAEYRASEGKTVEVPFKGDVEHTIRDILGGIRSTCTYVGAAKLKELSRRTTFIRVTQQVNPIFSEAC
UniProt P17900: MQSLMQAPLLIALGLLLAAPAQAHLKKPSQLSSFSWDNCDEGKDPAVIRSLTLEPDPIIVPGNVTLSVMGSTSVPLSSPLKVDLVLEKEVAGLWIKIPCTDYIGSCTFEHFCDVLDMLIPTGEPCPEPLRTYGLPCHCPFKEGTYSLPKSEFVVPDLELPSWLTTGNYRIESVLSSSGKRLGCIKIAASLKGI
UniProt P32189: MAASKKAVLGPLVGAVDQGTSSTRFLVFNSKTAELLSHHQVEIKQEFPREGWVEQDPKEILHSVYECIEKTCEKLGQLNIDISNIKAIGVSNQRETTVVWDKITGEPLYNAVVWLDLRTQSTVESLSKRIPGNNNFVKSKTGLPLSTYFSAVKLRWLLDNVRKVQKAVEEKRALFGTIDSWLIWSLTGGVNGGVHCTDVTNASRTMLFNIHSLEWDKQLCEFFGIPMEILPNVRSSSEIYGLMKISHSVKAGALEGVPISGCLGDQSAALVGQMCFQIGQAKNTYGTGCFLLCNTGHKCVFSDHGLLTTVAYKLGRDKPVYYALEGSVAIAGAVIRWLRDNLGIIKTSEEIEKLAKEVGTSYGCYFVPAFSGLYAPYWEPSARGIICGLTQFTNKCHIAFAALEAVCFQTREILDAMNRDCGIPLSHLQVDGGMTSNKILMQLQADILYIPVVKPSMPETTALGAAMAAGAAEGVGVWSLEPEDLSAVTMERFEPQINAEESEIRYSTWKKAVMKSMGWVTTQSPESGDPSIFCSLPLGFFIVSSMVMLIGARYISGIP
UniProt O94925: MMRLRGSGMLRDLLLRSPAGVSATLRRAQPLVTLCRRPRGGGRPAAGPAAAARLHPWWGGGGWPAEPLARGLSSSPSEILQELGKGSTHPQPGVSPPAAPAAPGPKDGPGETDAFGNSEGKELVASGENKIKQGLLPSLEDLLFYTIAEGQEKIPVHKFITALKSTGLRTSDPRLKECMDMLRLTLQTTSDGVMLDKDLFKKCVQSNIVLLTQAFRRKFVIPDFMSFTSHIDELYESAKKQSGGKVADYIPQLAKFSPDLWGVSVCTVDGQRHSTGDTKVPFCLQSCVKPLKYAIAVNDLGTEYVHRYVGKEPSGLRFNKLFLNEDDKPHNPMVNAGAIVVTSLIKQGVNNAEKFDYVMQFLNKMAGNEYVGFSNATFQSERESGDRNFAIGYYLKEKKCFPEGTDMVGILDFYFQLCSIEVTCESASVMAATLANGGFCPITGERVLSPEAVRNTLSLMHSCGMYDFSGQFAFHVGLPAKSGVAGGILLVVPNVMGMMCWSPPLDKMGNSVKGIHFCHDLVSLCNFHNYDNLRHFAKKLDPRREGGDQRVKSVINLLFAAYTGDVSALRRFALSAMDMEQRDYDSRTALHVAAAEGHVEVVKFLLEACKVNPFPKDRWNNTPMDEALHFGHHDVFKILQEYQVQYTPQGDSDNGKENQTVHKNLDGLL
UniProt P29992, whole entry, looked up: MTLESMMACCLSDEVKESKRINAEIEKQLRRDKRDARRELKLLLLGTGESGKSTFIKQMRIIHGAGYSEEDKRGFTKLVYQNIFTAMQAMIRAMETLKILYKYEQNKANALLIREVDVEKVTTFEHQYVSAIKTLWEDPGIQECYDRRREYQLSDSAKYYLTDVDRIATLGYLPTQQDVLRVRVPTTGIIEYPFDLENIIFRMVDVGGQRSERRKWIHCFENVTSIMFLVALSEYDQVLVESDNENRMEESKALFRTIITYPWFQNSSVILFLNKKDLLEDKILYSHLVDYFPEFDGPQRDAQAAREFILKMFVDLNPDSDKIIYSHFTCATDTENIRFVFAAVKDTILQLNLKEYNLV

Legend:
Experiment in all cases: log2 fold change, soluble protein after heating vs DMSO (PISA); higher = thermal stabilisation; K562 cells, 10 uM, 30 min; active = over 0.2 and 3.5 SD of the protein, either way, in both replicates (recomputed)
[1] = compound: C1=CC=C(C=C1)[C@H](COC2=CC3=C(C=C2)NC(=O)N3)NC(=O)C4=CC=CN(C4=O)CC5=CC(=C(C=C5)F)F
In short: (§1)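 K562 cells at 2×10^6 cells/mL were exposed to 10 μM compound for 30 min, then aliquots were heated for 3 min across 48°C-58°C, pooled, and extracted in PBS containing 0.5% NP-40 at 4°C. The supernatant after 21,000xg for 90 min was taken as soluble protein and measured by TMTpro 16plex LC-MS/MS with channel sums equalised. Thermal stability is reported relative to control samples, with values from duplicates. Fold changes are given on a log2 scale.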

[2] = compound: CC1=C(SC2=C1C(=N[C@H](C3=NN=C(N32)C)CC(=O)N)C4=CC=C(C=C4)Cl)C
In short: as §1

[3] = compound: CC1=C2C(=CC=C1)N=C(N(C2=O)C3=CC=CC=C3C)CN4C=NC5=C(N=CN=C54)N
In short: as §1

[4] = compound: Cc1sc2c(c1C)C(c1ccc(Cl)cc1)=N[C@@H](CC(=O)OC(C)(C)C)c1nnc(C)n1-2
In short: as §1

[5] = compound: c1ccc([C@@H]2C[C@H]2NC2CCNCC2)cc1
In short: as §1

Measured: log2 fold change

GRHPR (UniProt Q9UBQ7)
inactive: [1] 0.004 | [2] 0.099 | [3] 0.002 | [4] -0.099 | [5] -0.023

GLRX3 (UniProt O76003)
inactive: [1] 0.04 | [2] 0.072 | [3] 0.072 | [4] -0.033 | [5] -0.018

GON7 (UniProt Q9BXV9)
inactive: [1] -0.066 | [2] -0.006 | [3] -0.035 | [4] -0.32 | [5] 0.059

GPAT4 (UniProt Q86UL3)
inactive: [1] 0.023 | [2] 0.046 | [3] 0.013 | [4] -0.046 | [5] -0.015

GLMN (UniProt Q92990)
inactive: [1] -0.048 | [2] 0.057 | [3] -0.003 | [4] -0.01 | [5] 0.006

GLA (UniProt P06280)
inactive: [1] 0.019 | [2] -0.019 | [3] -0.01 | [4] 0.007 | [5] 0.017

GNMT (UniProt Q14749)
inactive: [1] -0.315 | [2] -0.116 | [3] 0.283 | [4] 0.019 | [5] -0.259

GNAS (UniProt Q5JWF2)
inactive: [1] 0.016 | [2] -0.008 | [3] 0.045 | [4] -0.038 | [5] 0.013

GLB1L2 (UniProt Q8IW92)
inactive: [1] -0.014 | [2] 0.082 | [3] -0.043 | [4] -0.025 | [5] -0.162

GINS2 (UniProt Q9Y248)
inactive: [1] -0.011 | [2] 0.102 | [3] 0.115 | [4] -0.033 | [5] -0.026

GLRX5 (UniProt Q86SX6)
inactive: [1] 0.093 | [2] 0.217 | [3] 0.205 | [4] -0.072 | [5] 0.033

GNAI2 isoform 4 (UniProt P04899)
inactive: [1] 0.027 | [2] -0.073 | [3] 0.013 | [4] -0.083 | [5] -0.006

GPATCH11 (UniProt Q8N954)
inactive: [1] 0.016 | [2] 0.012 | [3] -0.013 | [4] -0.004 | [5] 0.026

GPD1 (UniProt P21695)
inactive: [1] 0.095 | [2] 0.028 | [3] 0.123 | [4] -0.019 | [5] -0.238

Taken from the entries so far (two entries):
GNAI2 isoform 4 (UniProt P04899)
inactive: [1] 0.027 | [2] -0.073 | [3] 0.013 | [4] -0.083 | [5] -0.006

GPATCH11 (UniProt Q8N954)
inactive: [1] 0.016 | [2] 0.012 | [3] -0.013 | [4] -0.004 | [5] 0.026

(continued)

GLUL (UniProt P15104)
inactive: [1] -0.015 | [2] 0.005 | [3] 0 | [4] -0.007 | [5] 0.02

GMPR2 isoform 2 (UniProt Q9P2T1)
inactive: [1] 0.011 | [2] 0.04 | [3] 0.014 | [4] -0.016 | [5] 0.02

GM2A (UniProt P17900)
inactive: [1] 0.05 | [2] 0.01 | [3] 0.134 | [4] -0.042 | [5] -0.007

GOLGA3 (UniProt Q08378)
inactive: [1] 0.007 | [2] 0.04 | [3] 0.042 | [4] 0.012 | [5] -0.023

GNPDA1 (UniProt P46926)
inactive: [1] 0.021 | [2] 0.016 | [3] 0.016 | [4] -0.006 | [5] 0.055

GPD2 (UniProt P43304)
inactive: [1] 0.022 | [2] 0.005 | [3] 0.012 | [4] 0.003 | [5] 0.025

GK (UniProt P32189)
inactive: [1] 0.032 | [2] 0.026 | [3] 0.013 | [4] -0.013 | [5] 0.001

GLS isoform 3 (UniProt O94925)
inactive: [1] -0.077 | [2] 0.204 | [3] 0.024 | [4] -0.168 | [5] 0.067

GOLGA5 (UniProt Q8TBA6)
inactive: [1] 0.011 | [2] -0.023 | [3] 0.027 | [4] -0.053 | [5] 0.029

GNA11 (UniProt P29992)
inactive: [1] -0.013 | [2] 0.041 | [3] 0.074 | [4] -0.017 | [5] -0.01
